Measurements from the supplement of paper PMC11006884.
The targets with a hit were mostly taken out for another list; the other results follow. The data scatter; read single values as rough. The list shows a part of the results, in another mix than the full data.

By UniProt entry, the sequences of proteins in these tests, tags left out. Where a name states a change or a piece, a line headed by the entry shows the natural chain unless it says otherwise.
UniProt Q9UN37: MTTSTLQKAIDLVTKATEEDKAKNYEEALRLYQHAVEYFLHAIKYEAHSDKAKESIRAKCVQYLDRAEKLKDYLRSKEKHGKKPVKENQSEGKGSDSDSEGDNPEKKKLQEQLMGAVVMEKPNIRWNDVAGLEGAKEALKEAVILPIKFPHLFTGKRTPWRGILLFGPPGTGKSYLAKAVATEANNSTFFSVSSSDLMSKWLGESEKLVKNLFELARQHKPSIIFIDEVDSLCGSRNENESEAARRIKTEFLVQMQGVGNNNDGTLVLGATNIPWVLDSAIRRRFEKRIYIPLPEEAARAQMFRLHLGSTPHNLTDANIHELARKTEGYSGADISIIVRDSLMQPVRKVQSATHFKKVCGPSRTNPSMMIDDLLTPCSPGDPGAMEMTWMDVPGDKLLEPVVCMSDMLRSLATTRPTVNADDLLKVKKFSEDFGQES
UniProt Q9UJF2: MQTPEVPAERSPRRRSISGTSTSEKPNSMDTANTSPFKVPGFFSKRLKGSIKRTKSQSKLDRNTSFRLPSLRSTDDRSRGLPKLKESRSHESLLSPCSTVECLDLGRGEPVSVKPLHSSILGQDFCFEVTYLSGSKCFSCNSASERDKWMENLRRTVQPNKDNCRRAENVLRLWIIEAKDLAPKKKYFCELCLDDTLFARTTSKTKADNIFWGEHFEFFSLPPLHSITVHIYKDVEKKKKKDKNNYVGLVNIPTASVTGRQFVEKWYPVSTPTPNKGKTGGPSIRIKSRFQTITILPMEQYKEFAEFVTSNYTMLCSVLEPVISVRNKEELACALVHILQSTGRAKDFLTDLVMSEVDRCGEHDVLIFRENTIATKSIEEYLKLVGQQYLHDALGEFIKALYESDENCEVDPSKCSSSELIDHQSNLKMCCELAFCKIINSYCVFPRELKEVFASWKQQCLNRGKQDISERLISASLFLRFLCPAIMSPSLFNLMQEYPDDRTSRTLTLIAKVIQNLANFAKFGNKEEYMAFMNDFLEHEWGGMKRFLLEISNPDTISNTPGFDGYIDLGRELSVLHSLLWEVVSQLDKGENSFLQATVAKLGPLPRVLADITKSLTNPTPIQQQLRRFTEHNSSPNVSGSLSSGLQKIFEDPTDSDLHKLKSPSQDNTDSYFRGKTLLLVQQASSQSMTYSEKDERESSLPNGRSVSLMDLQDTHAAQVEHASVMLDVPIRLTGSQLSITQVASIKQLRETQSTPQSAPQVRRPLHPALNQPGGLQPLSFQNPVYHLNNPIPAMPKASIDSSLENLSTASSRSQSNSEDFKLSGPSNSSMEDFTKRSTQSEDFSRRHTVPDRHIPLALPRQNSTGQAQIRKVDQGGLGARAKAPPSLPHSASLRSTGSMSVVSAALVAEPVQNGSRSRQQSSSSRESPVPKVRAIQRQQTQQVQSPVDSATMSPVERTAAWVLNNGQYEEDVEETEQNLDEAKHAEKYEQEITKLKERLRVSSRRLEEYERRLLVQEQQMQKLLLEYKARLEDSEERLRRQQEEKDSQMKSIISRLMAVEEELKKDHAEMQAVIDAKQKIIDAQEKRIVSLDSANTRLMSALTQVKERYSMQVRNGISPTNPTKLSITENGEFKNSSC
UniProt Q9UMS0: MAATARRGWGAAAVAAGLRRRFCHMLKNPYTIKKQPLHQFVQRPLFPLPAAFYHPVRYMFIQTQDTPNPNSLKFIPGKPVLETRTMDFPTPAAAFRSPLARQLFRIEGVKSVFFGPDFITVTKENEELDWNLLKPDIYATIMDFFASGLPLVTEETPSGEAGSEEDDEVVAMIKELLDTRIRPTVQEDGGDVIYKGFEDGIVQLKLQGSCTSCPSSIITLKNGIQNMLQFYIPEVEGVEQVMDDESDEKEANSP
UniProt Q9ULH0: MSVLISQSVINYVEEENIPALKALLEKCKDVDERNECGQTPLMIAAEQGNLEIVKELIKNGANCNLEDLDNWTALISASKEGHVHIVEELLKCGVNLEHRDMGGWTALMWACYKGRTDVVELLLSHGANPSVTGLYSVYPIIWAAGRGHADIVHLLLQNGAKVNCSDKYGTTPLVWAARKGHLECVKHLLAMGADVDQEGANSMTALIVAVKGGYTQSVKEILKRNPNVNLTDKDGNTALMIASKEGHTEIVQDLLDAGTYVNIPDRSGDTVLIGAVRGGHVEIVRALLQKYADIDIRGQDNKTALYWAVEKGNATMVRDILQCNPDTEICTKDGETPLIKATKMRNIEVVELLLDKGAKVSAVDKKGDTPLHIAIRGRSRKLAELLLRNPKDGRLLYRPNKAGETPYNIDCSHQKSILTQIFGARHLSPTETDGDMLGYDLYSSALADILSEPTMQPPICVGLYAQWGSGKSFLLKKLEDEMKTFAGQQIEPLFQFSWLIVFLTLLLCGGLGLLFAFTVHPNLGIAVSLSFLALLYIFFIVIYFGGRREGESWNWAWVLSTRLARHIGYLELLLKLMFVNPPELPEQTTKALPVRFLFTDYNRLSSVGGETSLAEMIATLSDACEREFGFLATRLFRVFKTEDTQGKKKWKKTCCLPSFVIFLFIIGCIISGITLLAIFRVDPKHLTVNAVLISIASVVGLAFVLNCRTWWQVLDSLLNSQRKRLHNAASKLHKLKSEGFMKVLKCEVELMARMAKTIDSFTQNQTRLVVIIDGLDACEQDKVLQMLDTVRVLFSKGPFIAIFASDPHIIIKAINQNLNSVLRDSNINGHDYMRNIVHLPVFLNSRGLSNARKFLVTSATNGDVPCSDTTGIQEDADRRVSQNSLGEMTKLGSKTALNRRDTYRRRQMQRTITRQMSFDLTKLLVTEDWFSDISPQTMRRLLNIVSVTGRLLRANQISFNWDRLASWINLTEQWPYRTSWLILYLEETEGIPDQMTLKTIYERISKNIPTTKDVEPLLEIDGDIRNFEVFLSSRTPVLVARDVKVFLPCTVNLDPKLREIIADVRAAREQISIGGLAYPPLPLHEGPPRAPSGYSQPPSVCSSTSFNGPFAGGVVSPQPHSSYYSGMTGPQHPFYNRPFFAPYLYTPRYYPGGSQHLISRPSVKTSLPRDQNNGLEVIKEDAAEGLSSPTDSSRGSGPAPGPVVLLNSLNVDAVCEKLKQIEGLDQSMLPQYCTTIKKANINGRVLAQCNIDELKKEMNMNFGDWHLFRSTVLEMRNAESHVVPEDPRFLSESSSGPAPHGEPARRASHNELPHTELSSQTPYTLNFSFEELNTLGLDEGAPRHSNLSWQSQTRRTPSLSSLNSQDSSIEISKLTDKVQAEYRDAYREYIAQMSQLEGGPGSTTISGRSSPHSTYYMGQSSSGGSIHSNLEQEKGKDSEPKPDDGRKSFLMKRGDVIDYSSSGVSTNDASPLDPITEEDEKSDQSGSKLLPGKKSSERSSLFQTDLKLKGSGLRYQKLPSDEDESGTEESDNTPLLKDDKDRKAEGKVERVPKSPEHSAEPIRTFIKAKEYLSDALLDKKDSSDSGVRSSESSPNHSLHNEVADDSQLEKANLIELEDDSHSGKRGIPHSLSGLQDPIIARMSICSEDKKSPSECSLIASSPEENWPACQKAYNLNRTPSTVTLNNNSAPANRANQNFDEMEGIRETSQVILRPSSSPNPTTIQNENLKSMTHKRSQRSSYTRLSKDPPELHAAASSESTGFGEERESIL
UniProt Q9UK61: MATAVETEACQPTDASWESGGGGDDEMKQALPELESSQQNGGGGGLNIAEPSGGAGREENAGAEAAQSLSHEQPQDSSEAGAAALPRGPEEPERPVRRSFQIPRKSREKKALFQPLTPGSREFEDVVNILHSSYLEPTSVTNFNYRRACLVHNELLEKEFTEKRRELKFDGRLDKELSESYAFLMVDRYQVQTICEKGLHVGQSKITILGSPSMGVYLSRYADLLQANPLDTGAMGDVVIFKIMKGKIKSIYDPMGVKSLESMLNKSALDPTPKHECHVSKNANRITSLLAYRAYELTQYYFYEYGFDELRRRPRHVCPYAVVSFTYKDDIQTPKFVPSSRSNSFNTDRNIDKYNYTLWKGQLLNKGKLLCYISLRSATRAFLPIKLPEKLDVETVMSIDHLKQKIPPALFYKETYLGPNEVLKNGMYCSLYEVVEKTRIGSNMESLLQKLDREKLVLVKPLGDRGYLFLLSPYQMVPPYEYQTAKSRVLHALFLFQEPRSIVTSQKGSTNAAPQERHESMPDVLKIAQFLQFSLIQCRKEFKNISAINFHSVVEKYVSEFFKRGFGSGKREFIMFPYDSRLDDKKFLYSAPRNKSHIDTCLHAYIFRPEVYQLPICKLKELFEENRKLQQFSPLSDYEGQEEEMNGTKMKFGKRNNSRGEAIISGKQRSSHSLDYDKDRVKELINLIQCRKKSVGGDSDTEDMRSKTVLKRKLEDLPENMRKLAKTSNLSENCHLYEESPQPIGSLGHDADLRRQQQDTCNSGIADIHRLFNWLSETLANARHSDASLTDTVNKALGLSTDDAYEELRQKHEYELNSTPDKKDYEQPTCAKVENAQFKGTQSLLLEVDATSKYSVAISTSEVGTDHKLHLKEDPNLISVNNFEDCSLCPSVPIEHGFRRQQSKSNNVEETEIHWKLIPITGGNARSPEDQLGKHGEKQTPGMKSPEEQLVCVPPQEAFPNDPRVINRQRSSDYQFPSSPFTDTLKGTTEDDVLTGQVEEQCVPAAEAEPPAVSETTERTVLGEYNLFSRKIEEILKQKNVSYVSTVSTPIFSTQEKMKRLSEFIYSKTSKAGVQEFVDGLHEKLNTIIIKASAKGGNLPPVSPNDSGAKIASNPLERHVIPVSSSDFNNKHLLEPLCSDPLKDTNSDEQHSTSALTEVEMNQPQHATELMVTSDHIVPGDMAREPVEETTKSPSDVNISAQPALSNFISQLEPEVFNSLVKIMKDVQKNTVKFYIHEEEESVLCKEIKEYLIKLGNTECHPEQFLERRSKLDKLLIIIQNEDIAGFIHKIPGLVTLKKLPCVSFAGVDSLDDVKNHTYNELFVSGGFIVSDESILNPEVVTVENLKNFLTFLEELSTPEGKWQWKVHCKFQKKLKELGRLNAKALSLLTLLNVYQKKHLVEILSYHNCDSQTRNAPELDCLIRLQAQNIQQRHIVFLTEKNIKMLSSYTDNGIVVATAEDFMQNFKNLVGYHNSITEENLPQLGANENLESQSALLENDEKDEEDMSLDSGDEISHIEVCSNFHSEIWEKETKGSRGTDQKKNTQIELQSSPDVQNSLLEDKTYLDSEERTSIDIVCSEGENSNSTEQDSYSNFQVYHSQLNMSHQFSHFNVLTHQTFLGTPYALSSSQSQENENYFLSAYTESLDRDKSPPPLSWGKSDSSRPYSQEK
UniProt Q9Y3D2: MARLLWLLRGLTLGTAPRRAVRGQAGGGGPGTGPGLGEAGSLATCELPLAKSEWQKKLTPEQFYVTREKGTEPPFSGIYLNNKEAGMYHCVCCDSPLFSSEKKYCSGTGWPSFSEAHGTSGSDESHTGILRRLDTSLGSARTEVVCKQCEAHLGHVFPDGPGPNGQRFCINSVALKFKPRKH
UniProt Q9UIA9: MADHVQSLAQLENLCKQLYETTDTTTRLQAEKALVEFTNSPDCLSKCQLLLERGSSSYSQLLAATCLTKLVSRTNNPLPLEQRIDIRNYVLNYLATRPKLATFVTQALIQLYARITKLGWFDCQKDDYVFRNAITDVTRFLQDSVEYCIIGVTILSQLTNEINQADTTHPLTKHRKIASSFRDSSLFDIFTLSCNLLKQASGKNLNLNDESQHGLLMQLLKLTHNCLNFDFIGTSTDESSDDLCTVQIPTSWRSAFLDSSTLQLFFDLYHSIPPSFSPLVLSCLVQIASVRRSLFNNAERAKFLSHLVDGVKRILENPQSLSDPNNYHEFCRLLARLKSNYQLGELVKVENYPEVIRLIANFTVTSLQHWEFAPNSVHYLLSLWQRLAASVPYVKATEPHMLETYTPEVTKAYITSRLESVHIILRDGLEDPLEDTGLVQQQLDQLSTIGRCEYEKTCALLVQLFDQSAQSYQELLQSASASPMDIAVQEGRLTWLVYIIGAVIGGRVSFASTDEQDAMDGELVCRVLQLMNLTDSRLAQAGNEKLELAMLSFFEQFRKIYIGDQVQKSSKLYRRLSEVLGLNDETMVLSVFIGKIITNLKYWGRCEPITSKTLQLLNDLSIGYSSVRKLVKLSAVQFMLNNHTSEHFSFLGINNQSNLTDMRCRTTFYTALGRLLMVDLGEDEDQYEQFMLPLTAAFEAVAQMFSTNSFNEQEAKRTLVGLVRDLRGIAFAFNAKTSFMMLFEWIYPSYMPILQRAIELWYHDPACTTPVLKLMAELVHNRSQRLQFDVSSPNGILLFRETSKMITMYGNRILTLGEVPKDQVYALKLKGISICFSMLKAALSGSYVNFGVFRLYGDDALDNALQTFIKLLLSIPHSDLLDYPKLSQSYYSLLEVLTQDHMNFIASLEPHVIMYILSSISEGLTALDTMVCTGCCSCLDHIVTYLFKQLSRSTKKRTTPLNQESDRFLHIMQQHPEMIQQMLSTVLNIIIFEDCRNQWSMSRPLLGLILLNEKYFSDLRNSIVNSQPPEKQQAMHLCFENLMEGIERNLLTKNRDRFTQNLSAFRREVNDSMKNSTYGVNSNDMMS

compound: COC(=O)/C=C/c1ccccc1 [methyl cinnamate]; experiment: log2 ratio of iodoacetamide-alkyne labeling of the cysteine site, DMSO over compound (competition); higher = stronger covalent engagement of the cysteine by the compound, active = 1 or more; details: 500 µM; treatment time 1 h; system: HEK293T cell lysate
How it was run: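 HEK293T lysate (2 mg/mL) was treated with DMSO or electrophile (500 µM, 1 h, ambient temperature), then iodoacetamide alkyne (1 h), clicked to sCIP-TMT reagents, pooled, trypsin-digested overnight at 37 °C, streptavidin-enriched and acid-eluted. Peptides were run on Orbitrap Eclipse LC-MS/MS with FAIMS and quantified in FragPipe. The log2 competition ratio per cysteine is mean control-channel over mean compound-channel reporter intensity. Duplicate channels and three replicates were used, and cysteines quantified in only one replicate were excluded.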

log2 ratio of iodoacetamide-alkyne labeling, inactive:
NOSIP C185 (UniProt Q9Y314) 0.336, UniProt Q9Y3D0_C93 -0.165, DDX52 C536 (UniProt Q9Y2R4) 0.194, VPS4A C359 (UniProt Q9UN37) 0.194, RASAL2 C333 (UniProt Q9UJF2) -0.0963, CHORDC1 C5 (UniProt Q9UHD1) 0.126, HECTD1 C1893 (UniProt Q9ULT8) -0.0849, PRPF19 C16 (UniProt Q9UMS4) 0.167, AGTPBP1 C558 (UniProt Q9UPW5) 0.207, MCTS1 C14 (UniProt Q9ULC4) 0.276, NFU1 C210 (UniProt Q9UMS0) 0.65, TNRC6B C600 (UniProt Q9UPQ9) 0.193, PACSIN3 C421 (UniProt Q9UKS6) -0.0248, KIDINS220 C867 (UniProt Q9ULH0) 0.158, LSM7 C85 (UniProt Q9UK45) 0.0792, UniProt Q9UK61_C734 -0.0272, VPS51 C421 (UniProt Q9UID3) -0.269, NCKAP1 C618 (UniProt Q9Y2A7) 0.2, CPSF3 C498 (UniProt Q9UKF6) 0.206, GTF3C4 C116 (UniProt Q9UKN8) 0.0819, DDX41 C568 (UniProt Q9UJV9) 0.0681, CHORDC1 C59 (UniProt Q9UHD1) -0.096, NOP58 C106 (UniProt Q9Y2X3) -0.128, RABGEF1 C359 (UniProt Q9UJ41) 0.125, EXO1 C608 (UniProt Q9UQ84) 0.0988, LUC7L2 C348 (UniProt Q9Y383) 0.262, PLAA C605 (UniProt Q9Y263) 0.0356, GTF3C4 C814 (UniProt Q9UKN8) 0.0649, ANAPC2 C421 (UniProt Q9UJX6) 0.112, MTF2 C437 (UniProt Q9Y483) 0.148, MACF1 C5049 (UniProt Q9UPN3) 0.0197, MYO6 C1236 (UniProt Q9UM54) 0.201, MSRB2 C105 (UniProt Q9Y3D2) -0.0371, XPO7 C15 (UniProt Q9UIA9) 0.0284, CORO1C C420 (UniProt Q9ULV4) 0.475, ANKRD50 C87 (UniProt Q9ULJ7) 0.319, USP24 C14 (UniProt Q9UPU5) 0.211, SAMHD1 C341 (UniProt Q9Y3Z3) 0.137
